Among the data in ChEMBL document CHEMBL5528012, “Discovery of novel deoxyvasicinone derivatives with benzenesulfonamide substituents as multifunctional agents against Alzheimer's disease” (Eur J Med Chem, 2024) are Papp values, retold here.

The series can be described thus: in vitro. The settings on record: PAMPA, pH 7.4.

As a reminder, the Papp is a coefficient for how fast a substance crosses the barrier. High values mean ready permeation, low ones poor permeation. Regarding `COc1cc2c(cc1OC)C(=O)C(CC1CCN(Cc3ccccc3)CC1)C2` (stereo unspecified) [DONEPEZIL], the Papp at 50 µM amounted to 18.6 ×10⁻⁶ cm/s.
